The experiment has as its target T1, LIP1 full-length ORF fused upstream of the N-terminal region of mVenus YFP (Arabidopsis thaliana) (UniProt Q9ZWT1).
T1 sequence: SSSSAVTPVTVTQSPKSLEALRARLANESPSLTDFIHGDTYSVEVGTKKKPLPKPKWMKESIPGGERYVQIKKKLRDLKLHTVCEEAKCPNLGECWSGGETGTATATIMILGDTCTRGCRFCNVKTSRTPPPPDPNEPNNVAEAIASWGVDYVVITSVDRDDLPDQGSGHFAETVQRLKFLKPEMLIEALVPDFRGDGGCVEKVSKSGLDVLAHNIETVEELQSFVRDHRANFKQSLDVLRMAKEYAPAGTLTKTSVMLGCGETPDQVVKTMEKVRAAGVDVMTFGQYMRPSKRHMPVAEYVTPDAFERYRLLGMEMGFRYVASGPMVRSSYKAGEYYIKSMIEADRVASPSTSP
As to the kind of experiment: split reporter; BiFC with split mVenus YFP in Arabidopsis leaf protoplasts; LIP1-N (N-terminal YFP region) with NFU-C (C-terminal YFP region); imaged 20-24 h after transfection, MitoTracker co-stain.

Consider two molecules from PMC8825329.

These are yes or no findings as the source states them, for the method shown. Binding seen in cells or lysates may run through a third protein. Some results given as binding are weak or reduced against the parent protein; the word gives no strength. Where a sequence is shown, tags or fusion partners need not be part of it.

B1: NFU4 full-length ORF fused upstream of the C-terminal region of mVenus YFP (protein, UniProt Q9LIG6 49-283)
chain: LNSRTKDSALPSLNSSLLAQKWNFLGGQRRTMFIQTQSTPNPSSLMFYPGKPVMEVGSADFPNVRSALGSPLAKSIYSIDGVVRVFFGSDFVTVTKSDDVSWDILKPEIFAAVMDFYSSGQPLFLDSQAAAAKDTAISEDDSETVAMIKELLETRIRPAVQDDGGDIEYCGFDPESGIVKLRMQGACSGCPSSSVTLKSGIENMLMHYVSEVKGVEQEFDGEDEEGTLSGEMRVE
B1: the binding entry was “binds”.

B2: NFU5 full-length ORF fused upstream of the C-terminal region of mVenus YFP (protein, UniProt Q9C8J2 62-275)
chain: SSFPFNWIEQRRTMFIQTQSTPNPSSLMFSPGKPVMEIGSADFPNSRSAMSSPLAKAIFAIDGVVRVFYGSDFVTVTKSDDVTWDILKPDIFAVVMDFYSSGQPLFLDSQATAAKDTAIHEDDSETVAMIKELLETRIRPSVQDDGGDIEYCGFDTETGIVKLRMQGACSGCPSSSVTLKSGIENMLMHYVSEVKGVEQEFDGEEEGTSSGPME
With B2, the binding result is reported as “binds”.
